No constants are given. Whether binding was seen depends on the method and setting. Some entries that bind do so weakly or less than the wild type.
Target: B7-1 on J558 cells (UniProt Q00609)
Test: flow cytometry on cells; J558-B7 cells with biotinylated CD28-Fc (20 μg/ml) in the presence of unlabeled CTLA-4-Fc (5 μg/ml) and graded anti-CTLA-4 mAbs or control IgG-Fc; only the binder purified

By UniProt entry, the sequences of proteins in these tests, tags left out. Residues count along the entry.
UniProt Q00609, residues 38-306: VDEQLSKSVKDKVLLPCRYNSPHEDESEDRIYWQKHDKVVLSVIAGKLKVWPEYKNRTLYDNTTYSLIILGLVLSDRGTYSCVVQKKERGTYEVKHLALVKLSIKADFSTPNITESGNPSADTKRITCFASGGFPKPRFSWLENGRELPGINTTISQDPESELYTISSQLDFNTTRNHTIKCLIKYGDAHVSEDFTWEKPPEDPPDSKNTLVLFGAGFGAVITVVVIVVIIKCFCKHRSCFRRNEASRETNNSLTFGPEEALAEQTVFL
UniProt P10747, residues 19-152: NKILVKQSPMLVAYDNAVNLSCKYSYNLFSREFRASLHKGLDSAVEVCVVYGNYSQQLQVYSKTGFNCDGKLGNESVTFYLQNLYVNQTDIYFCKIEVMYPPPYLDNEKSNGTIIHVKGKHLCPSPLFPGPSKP

Which binding does the source give for “CD28-Fc (from UniProt P10747 19-152) (Fc fusion)” here?
The binding was “binds”.
